Test results: publication PMC12480156, “From biophysical interaction to structural modeling: bi-terminal G and TGS domains drive rice OsYchF1-OsGAP1 complex formation” (Botanical Studies, 2025)
Results are given in words; binding and its absence hold for the method and conditions named. Some results given as binding are weak or reduced against the parent protein; the word gives no strength.

Experiments:
Assay in all cases: two-hybrid; OsYchF1 and truncated derivatives in pGBKT7 (bait), OsGAP1 in pGADT7 (prey), co-transformed into yeast strain AH109; growth on SD/-Leu-Trp-His-Ade media, 7 days at 30 °C
[1] = biological target: T1, pGBKT7-OsYchF1 (TGS domain) (rice (Oryza sativa)) (UniProt Q6Z1J6)
T1 sequence: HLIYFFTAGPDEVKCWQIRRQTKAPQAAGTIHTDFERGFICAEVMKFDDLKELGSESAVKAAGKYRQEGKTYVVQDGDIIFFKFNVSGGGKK

[2] = biological target: T2, pGBKT7-OsYchF1 (helical domain) (rice (Oryza sativa)) (UniProt Q6Z1J6)
T2 sequence: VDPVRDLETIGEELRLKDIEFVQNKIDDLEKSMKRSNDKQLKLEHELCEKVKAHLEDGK

[3] = biological target: T3, pGBKT7-OsYchF1 (G domain) (rice (Oryza sativa)) (UniProt Q6Z1J6)
T3 sequence: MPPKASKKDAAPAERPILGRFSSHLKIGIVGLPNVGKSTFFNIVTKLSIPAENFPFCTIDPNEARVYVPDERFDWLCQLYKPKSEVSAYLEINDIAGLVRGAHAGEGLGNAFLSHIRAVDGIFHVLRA

B1: pGADT7-OsGAP1 (protein, UniProt Q6YWF1 1-165)
chain: MLGHLVGLVKVRVVRGVNLAVRDLRSSDPYVIVRMGKQKLKTRVIKKTTNPEWNDELTLSIEDPAVPVRLEVYDKDTFIDDAMGNAELDIRPLVEVVKMKIEGVADNTVVKKVVPNRQNCLAEESTIYISEGKVKQDVVLRLRDVECGEIELQLQWVDIPGSKGV
B1 was tested, and the binding [1] was “binds”, the binding [2] was “no binding” and the binding [3] was “binds”.
